Test results reported in US20060063228A1.
No constants are given. Whether binding was seen depends on the method and setting. Some entries that bind do so weakly or less than the wild type.

By UniProt entry, the sequences of proteins in these tests, tags left out. Where a name states a change or a piece, a line headed by the entry shows the natural chain unless it says otherwise.
UniProt P35225: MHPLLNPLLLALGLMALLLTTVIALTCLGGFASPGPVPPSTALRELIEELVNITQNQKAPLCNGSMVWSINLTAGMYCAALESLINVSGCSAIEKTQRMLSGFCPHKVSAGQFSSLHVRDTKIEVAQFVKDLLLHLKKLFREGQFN

Target: IL-13 bound to mAb13.2 immobilized on the chip (human) (UniProt P35225)
Test: BIACORE; IL-13 captured on immobilized mAb13.2, IL-13Rα1 in solution

binding: binds
B1: IL-13Rα1 (receptor, UniProt P78552 22-343, looked up)
chain: GGGGAAPTETQPPVTNLSVSVENLCTVIWTWNPPEGASSNCSLWYFSHFGDKQDKKIAPETRRSIEVPLNERICLQVGSQCSTNESEKPSILVEKCISPPEGDPESAVTELQCIWHNLSYMKCSWLPGRNTSPDTNYTLYYWHRSLEKIHQCENIFREGQYFGCSFDLTKVKDSSFEQHSVQIMVKDNAGKIKPSFNIVPLTSRVKPDPPHIKNLSFHNDDLYVQWENPQNFISRCLFYEVEVNNSQTETHNVFYVQEAKCENPEFERNVENTSCFMVPGVLPDTLNTVRIRVKTNKLCYEDDKLWSNWSQEMSIGKKRNST
